Data as given in PMC6450876.
Results are given in words; binding and its absence hold for the method and conditions named. Binding seen in cells or lysates may run through a third protein. Some entries that bind do so weakly or less than the wild type. For some assays here: Sequences can lack the tags named with a protein.

The chains behind the UniProt entries cited, without tags or fusion partners.
UniProt O43474: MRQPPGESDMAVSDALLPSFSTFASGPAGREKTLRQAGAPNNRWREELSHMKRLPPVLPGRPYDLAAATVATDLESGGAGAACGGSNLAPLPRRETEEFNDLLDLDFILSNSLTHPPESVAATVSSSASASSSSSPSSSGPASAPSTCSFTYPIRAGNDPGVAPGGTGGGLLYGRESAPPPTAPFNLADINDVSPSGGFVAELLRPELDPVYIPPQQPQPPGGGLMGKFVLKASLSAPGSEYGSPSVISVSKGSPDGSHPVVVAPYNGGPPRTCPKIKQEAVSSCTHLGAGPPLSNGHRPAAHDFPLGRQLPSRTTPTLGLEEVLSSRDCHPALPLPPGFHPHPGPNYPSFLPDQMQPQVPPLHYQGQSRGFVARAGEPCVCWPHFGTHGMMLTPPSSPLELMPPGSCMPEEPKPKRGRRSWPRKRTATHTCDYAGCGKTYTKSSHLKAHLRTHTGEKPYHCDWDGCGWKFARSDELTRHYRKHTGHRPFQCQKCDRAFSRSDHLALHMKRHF

T1: Flag-SET8 (UniProt Q9NQR1)
T1 sequence: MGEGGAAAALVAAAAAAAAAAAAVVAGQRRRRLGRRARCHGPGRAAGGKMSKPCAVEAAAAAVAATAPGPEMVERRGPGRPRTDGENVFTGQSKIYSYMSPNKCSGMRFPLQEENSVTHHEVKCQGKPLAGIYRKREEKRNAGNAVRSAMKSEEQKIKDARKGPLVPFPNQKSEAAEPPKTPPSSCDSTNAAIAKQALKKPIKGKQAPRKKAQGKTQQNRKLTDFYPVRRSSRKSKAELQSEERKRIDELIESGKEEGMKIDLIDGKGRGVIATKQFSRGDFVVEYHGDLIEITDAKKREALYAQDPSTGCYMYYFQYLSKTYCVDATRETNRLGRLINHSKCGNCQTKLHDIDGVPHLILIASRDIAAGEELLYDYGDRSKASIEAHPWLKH


Columns and labels:
Flag-SET8 = biological target: T1, Flag-SET8; assay: co-IP; HEK293T cells expressing Flag-SET8 and HA-KLF4; extracts immunoprecipitated with antibody against Flag tag (IB: KLF4) or KLF4 (IB: Flag-SET8)
[1] = biological target: Krüppel-like factor 4 (KLF4), endogenous in HCC cells (human (endogenous in HCC cell lines)) (UniProt O43474); assay: co-IP; endogenous SET8 and KLF4 in HCC cell lines, immunoprecipitation and blot

binding (Flag-SET8) | binding [1] | Molecule
binds |  | HA-KLF4 (from UniProt O43474 1-513)
 | binds | SET8, endogenous in HCC cells (protein, UniProt Q9NQR1 1-393) MGEGGAAAALVAAAAAAAAAAAAVVAGQRRRRLGRRARCHGPGRAAGGKMSKPCAVEAAAAAVAATAPGPEMVERRGPGRPRTDGENVFTGQSKIYSYMSPNKCSGMRFPLQEENSVTHHEVKCQGKPLAGIYRKREEKRNAGNAVRSAMKSEEQKIKDARKGPLVPFPNQKSEAAEPPKTPPSSCDSTNAAIAKQALKKPIKGKQAPRKKAQGKTQQNRKLTDFYPVRRSSRKSKAELQSEERKRIDELIESGKEEGMKIDLIDGKGRGVIATKQFSRGDFVVEYHGDLIEITDAKKREALYAQDPSTGCYMYYFQYLSKTYCVDATRETNRLGRLINHSKCGNCQTKLHDIDGVPHLILIASRDIAAGEELLYDYGDRSKASIEAHPWLKH
